PubChem BioAssay AID1259425, University of Nebraska Medical Center, 2018
Here is a random part of about 14,000 deposited reagents. The record does not give: the time to read-out.

- Aim: 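Find knockdowns that reproduce the gene expression pattern seen when KSR1 is lost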 (primary screen)
- Cell system: HCT116 human colon cancer cells
- Knock-down reagent: siRNA pool against human genes, 50 nM siRNA
- Measurement: 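After 50 nM siRNA pool, branched-DNA assay measures six marker transcripts per well, minus blank, normalised to the geometric mean of two housekeeping transcripts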
- Direction: BNIP3L mRNA: higher = more BNIP3L transcript after knockdown; NDRG1 mRNA: higher = more NDRG1 transcript after knockdown; BNIP3 mRNA: higher = more BNIP3 transcript after knockdown; ALDOC mRNA: higher = more ALDOC transcript after knockdown; ACSL5 mRNA: higher = more ACSL5 transcript after knockdown

gene knocked down | PubChem SID | BNIP3L mRNA, set 1 | NDRG1 mRNA, set 1 | BNIP3 mRNA, set 1 | ALDOC mRNA, set 1 | ACSL5 mRNA, set 1
ATL2 (GeneID 64225) | SID364002428 | 0.165 | 0.268 | 0.446 | 0.0374 | 0.135
FGF10 (GeneID 2255) | SID363995447 | 0.0853 | 0.14 | 0.275 | 0.0339 | 0.141
NTAQ1 (GeneID 55093) | SID364000715 | 0.113 | 0.548 | 0.396 | 0.0549 | 0.261
FBXO38 (GeneID 81545) | SID364003445 | 0.0397 | 0.0952 | 0.17 | 0.0171 | 0.219
GPC6 (GeneID 10082) | SID363996594 | 0.192 | 0.237 | 0.224 | 0.0319 | 0.29
EGR2 (GeneID 1959) | SID363991730 | 0.121 | 5.26 | 0.479 | 0.0227 | 0.607
REV3L (GeneID 5980) | SID363994067 | 0.076 | 0.0709 | 0.272 | 0.0215 | 0.0881
DENND2D (GeneID 79961) | SID364003148 | 0.0576 | 0.327 | 0.302 | 0.0305 | 0.312
FAXC (GeneID 84553) | SID364004024 | 0.386 | 0.291 | 0.321 | 0.152 | 0.284
CDK16 (GeneID 5127) | SID363997026 | 0.0793 | 0.081 | 0.199 | 0.0063 | 0.216
GBP1 (GeneID 2633) | SID363993262 | 0.114 | 0.103 | 0.167 | 0.0348 | 0.259
AMN (GeneID 81693) | SID364003516 | 0.13 | 0.176 | 0.348 | 0.0171 | 0.118
SNIP1 (GeneID 79753) | SID364002987 | 0.148 | 0.109 | 0.405 | 0.0237 | 0.165
C3AR1 (GeneID 719) | SID363995064 | 0.226 | 0.377 | 0.492 | 0.0437 | 0.2
SLC24A2 (GeneID 25769) | SID364001615 | 0.168 | 0.275 | 0.366 | 0.0256 | 0.347

Part of the list above, set out differently.
gene knocked down,PubChem SID,"BNIP3L mRNA, set 1","NDRG1 mRNA, set 1","BNIP3 mRNA, set 1","ALDOC mRNA, set 1","ACSL5 mRNA, set 1"
CDK16 (GeneID 5127),SID363997026,0.0793,0.081,0.199,0.0063,0.216
GBP1 (GeneID 2633),SID363993262,0.114,0.103,0.167,0.0348,0.259
AMN (GeneID 81693),SID364003516,0.13,0.176,0.348,0.0171,0.118
SNIP1 (GeneID 79753),SID364002987,0.148,0.109,0.405,0.0237,0.165
C3AR1 (GeneID 719),SID363995064,0.226,0.377,0.492,0.0437,0.2
SLC24A2 (GeneID 25769),SID364001615,0.168,0.275,0.366,0.0256,0.347

The listing continues.
gene knocked down | PubChem SID | BNIP3L mRNA, set 1 | NDRG1 mRNA, set 1 | BNIP3 mRNA, set 1 | ALDOC mRNA, set 1 | ACSL5 mRNA, set 1
MAST1 (GeneID 22983) | SID363999236 | 0.234 | 0.225 | 0.772 | 0.0189 | 0.136
IL20RA (GeneID 53832) | SID363998848 | 0.0696 | 0.317 | 0.241 | 0.0292 | 0.165
KHK (GeneID 3795) | SID363991556 | 0.101 | 0.098 | 0.359 | 0.0065 | 0.176
FOXK2 (GeneID 3607) | SID363995489 | 0.136 | 0.33 | 0.28 | 0.0328 | 0.167
SLC25A4 (GeneID 291) | SID363992443 | 0.105 | 0.0692 | 0.363 | 0.0136 | 0.0776
GABRB2 (GeneID 2561) | SID363992103 | 0.0365 | 0.479 | 0.346 | 0.0924 | 0.285
ADAMTS4 (GeneID 9507) | SID363996035 | 0.0708 | 0.124 | 0.212 | 0.0151 | 0.135
FABP1 (GeneID 2168) | SID363992705 | 0.0808 | 0.0626 | 0.204 | 0.0288 | 0.0825
DENND2B (GeneID 6764) | SID363996324 | 0.123 | 0.116 | 0.265 | 0.0241 | 0.0901
SAMM50 (GeneID 25813) | SID363999455 | 0.144 | 0.244 | 0.355 | 0.0253 | 0.227
NR5A1 (GeneID 2516) | SID363995901 | 0.0625 | 0.211 | 0.318 | 0.0172 | 0.0873
CPVL (GeneID 54504) | SID364001341 | 0.057 | 0.0743 | 0.274 | 0.0185 | 0.106
RCOR3 (GeneID 55758) | SID364000916 | 0.0822 | 0.335 | 0.367 | 0.0065 | 0.164
ENKD1 (GeneID 84080) | SID364003797 | 0.229 | 0.109 | 0.313 | 0.0595 | 0.159
MUC5B (GeneID 727897) | SID364005126 | 0.191 | 0.353 | 0.401 | 0.0572 | 0.228
PCNA (GeneID 5111) | SID363993761 | 0.197 | 0.205 | 0.423 | 0.0338 | 0.184
RHPN1-AS1 (GeneID 78998) | SID364002696 | 0.104 | 0.157 | 0.213 | 0.0586 | 0.173
EDAR (GeneID 10913) | SID364002396 | 0.0932 | 0.12 | 0.298 | 0.0117 | 0.136
KDM6A (GeneID 7403) | SID364002037 | 0.144 | 0.279 | 0.307 | 0.0273 | 0.194
